Reference: patent publication US20110183842A1, “Triazole and Imidazole Compounds, Use Thereof and Agents Containing Them” (BASF SE, priority 2008, published 2011)
Some results were stated once for a whole list of compounds, not compound by compound.

Each compound was assayed on Botrytis cinerea (assay: Activity against gray mold on bell pepper leaves caused by Botrytis cinerea, 1 day protective application (greenhouse)). Conditions: 300 ppm active compound, bell pepper seedlings sprayed to runoff 1 day before inoculation, rated after 5 days; untreated plants 100% infected.
Format: in vivo
With `CC(C)(C)C(O)C(CCCCOc1ccccc1F)n1ncnc1S` (stereo not shown) [I.A1, 8-(2-fluorophenoxy)-4-(5-mercapto-[1,2,4]triazol-1-yl)-2,2-dimethyloctan-3-ol] the “extent of the fungal infection on the leaves, determined visually in %” value (“extent of the fungal infection … in %” below) was “at most 15%”.
For `CC(C)(C)C(O)C(CCCCOc1cc(F)ccc1F)n1ncnc1S` (stereo not shown) [I.A4, 8-(2,5-difluorophenoxy)-4-(5-mercapto-[1,2,4]triazol-1-yl)-2,2-dimethyloctan-3-ol], the “extent of the fungal infection … in %” value was “at most 15%”.
In the case of `CC(C)(C)C(O)C(CCCCOc1c(F)cccc1Cl)n1ncnc1S` (stereo not shown) [I.A5, 8-(2-Chloro-6-fluorophenoxy)-4-(5-mercapto-[1,2,4]triazol-1-yl)-2,2-dimethyloctan-3-ol], the “extent of the fungal infection … in %” value is reported as “at most 15%”.
For `CCSc1ncnn1C(CCCCOc1ccccc1F)C(O)C(C)(C)C` (stereo not shown) [I.A58, 4-(5-ethylsulfanyl-[1,2,4]triazol-1-yl)-8-(2-fluorophenoxy)-2,2-dimethyl-octan-3-ol], the “extent of the fungal infection … in %” value was “at most 15%”.
